Binding data for one molecule are collected here from patent US20140377284A1 (BIOCEROX PRODUCTS B V, published 2014).

Results are given in words; binding and its absence hold for the method and conditions named. Some entries that bind do so weakly or less than the wild type.

In experiment [1] the target is truncated human CD134 'CRD2' construct (human) (UniProt P43489). The experiment can be described thus: flow cytometry, transiently transfected 293-F cells, 20.0 µg/mL.
Experiment [2] concerns the target T1, truncated human CD134 'CRD3' construct (human, UniProt P43489 108-277).
T1 construct: also called truncated human CD134 variant that lacked CRD1-CRD2
T1 sequence: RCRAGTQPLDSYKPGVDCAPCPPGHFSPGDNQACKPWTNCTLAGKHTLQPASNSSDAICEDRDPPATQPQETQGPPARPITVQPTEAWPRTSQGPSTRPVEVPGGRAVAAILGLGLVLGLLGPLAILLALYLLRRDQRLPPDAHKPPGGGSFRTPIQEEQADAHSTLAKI
The description is as above. The procedure: After 48 h, surface human CD134 expression on transfected cells was analyzed by FACS analysis. To this end, transfected cells were harvested and put at 1-2×10⁶ cells/mL in ice-chilled PBS/BSA/NaN₃ supplemented with 50 μg/mL purified human IgG (Sigma; blocking Fey receptors). […] After extensive washing in PBS/BSA/NaN₃, cells were subsequently incubated with 1:200 diluted PE-conjugated goat anti-mouse IgG (Fcγ specific) antibodies (Jackson ImmunoResearch) or with 1:200 diluted PE-conjugated goat anti-human IgG (Fcγ specific) antibodies (Jackson ImmunoResearch) for 30 minutes at 4° C. […] After extensive washing in PBS/BSA/NaN₃, cells were subsequently incubated with 1:200 diluted PE-conjugated goat anti-mouse IgG (Fcγ specific) antibodies (Jackson ImmunoResearch) for 30 minutes at 4° C. After extensive washing in PBS/BSA/NaN₃, cells were fixed in 2% formaldehyde in PBS/BSA/NaN₃ for 30 minutes at 4° C. Binding of antibodies was measured using flow cytometry (FACSCalibur; BD Biosciences).

B1: chimeric human IgG1κ anti-human CD134 monoclonal antibody clone 12H3 (antibody, V domains shown)
VH: EVQLQQSGPELVKPGASVKISCKTSGYTFKDYTMHWVKQSHGKSLEWIGGIYPNNGGSTYNQNFKDKATLTVDKSSSTAYMEFRSLTSEDSAVYYCARMGYHGPHLDFDVWGAGTTVTVSP
VL: DIVMTQSHKFMSTSLGDRVSITCKASQDVGAAVAWYQQKPGQSPKLLIYWASTRHTGVPDRFTGGGSGTDFTLTISNVQSEDLTDYFCQQYINYPLTFGGGTKLEIKR
notes: Human IgG1/kappa constant regions
On to B1, for which the binding entry in experiment [1] and in experiment [2] was “binds” in each case.
